Source: the supplement of paper PMC4604168 (melanoma cell lines)
Some of the results follow. Repeats are few or missing, and single values can be far off.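 Imaging used 1,536-well plates; nuclei positive for cleaved PARP by antibody were divided by total DNA-stained nuclei to yield the apoptosis fraction. Doses for screening kept most cells viable, and cell lines differ markedly in resting and induced cleaved-PARP levels.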

What was measured:
Assay in all cases: cleaved PARP positive nuclei fraction relative to DMSO control; melanoma cells; higher = more apoptosis
Settings in all cases: library dose: low library concentration; 72 h
501Mel = tested on: 501Mel
A101D = tested on: A101D
A2058 = tested on: A2058
C32 = tested on: C32
CBRC008 = tested on: CBRC008 (line from a melanoma biopsy)
CBRC014 = tested on: CBRC014 (line from a melanoma biopsy)
CBRC016 = tested on: CBRC016 (line from a melanoma biopsy)
CBRC017 = tested on: CBRC017 (line from a melanoma biopsy)
COLO792 = tested on: COLO792
COLO800 = tested on: COLO800
COLO829 = tested on: COLO829
G361 = tested on: G361
IPC-298 = tested on: IPC-298
IST-MEL1 = tested on: IST-MEL1
LB2518-MEL = tested on: LB2518-MEL
LOXIMVI = tested on: LOXIMVI
A375 = tested on: A375
CBRC034 = tested on: CBRC034 (line from a melanoma biopsy)
MEL-HO = tested on: MEL-HO

SMILES	cleaved PARP positive nuclei fraction (501Mel)	cleaved PARP positive nuclei fraction (A101D)	cleaved PARP positive nuclei fraction (A2058)	cleaved PARP positive nuclei fraction (C32)	cleaved PARP positive nuclei fraction (CBRC008)	cleaved PARP positive nuclei fraction (CBRC014)	cleaved PARP positive nuclei fraction (CBRC016)	cleaved PARP positive nuclei fraction (CBRC017)	cleaved PARP positive nuclei fraction (COLO792)	cleaved PARP positive nuclei fraction (COLO800)	cleaved PARP positive nuclei fraction (COLO829)	cleaved PARP positive nuclei fraction (G361)	cleaved PARP positive nuclei fraction (IPC-298)	cleaved PARP positive nuclei fraction (IST-MEL1)	cleaved PARP positive nuclei fraction (LB2518-MEL)	cleaved PARP positive nuclei fraction (LOXIMVI)	cleaved PARP positive nuclei fraction (A375)	cleaved PARP positive nuclei fraction (CBRC034)	cleaved PARP positive nuclei fraction (MEL-HO)
O=C(Nc1cc(C(F)(F)F)cc(C(F)(F)F)c1)c1cc(Cl)ccc1O + COc1cc2ncnc(Nc3ccc(Oc4ccccc4)cc3)c2cc1OC [SrcI1] (first compound 0.016 µM, partner dose 2 µM)	192%	37.7%	63.9%	121%	391%	105%	74.9%	132%	141%	25.7%	111%	73.9%	165%	45.8%	93.3%	98.1%			
COc1cc([C@@H]2c3cc4c(cc3[C@@H](O[C@@H]3O[C@@H]5CO[C@@H](C)O[C@H]5[C@H](O)[C@H]3O)[C@H]3COC(=O)[C@H]23)OCO4)cc(OC)c1O [etoposide] + CS(=O)(=O)CCNCc1ccc(-c2ccc3ncnc(Nc4ccc(OCc5cccc(F)c5)c(Cl)c4)c3c2)o1 [lapatinib] (first compound 0.02 µM, partner dose 0.8 µM)	128%	150%	106%	183%	166%	91.2%	137%	103%	113%		159%	60.6%	88.8%	38.6%	113%	78%	214%	132%	117%
CC[C@]1(O)C[C@H]2CN(CCc3c([nH]c4ccccc34)[C@@](C(=O)OC)(c3cc4c(cc3OC)N(C=O)[C@H]3[C@@](O)(C(=O)OC)[C@H](OC(C)=O)[C@]5(CC)C=CCN6CC[C@]43[C@@H]65)C2)C1 [vincristine] + COc1ccc2c(c1)CCC1C2CCC2(C)C(NCCCCCCN3C(=O)C=CC3=O)CCC12 [U73122] (first compound 0.0001 µM, partner dose 0.4 µM)	70.1%	71.2%	222%	75.3%	59.3%	109%	81.7%	89.2%	79.8%	69.2%	80%	29.8%	91.9%	205%	76.1%	224%			
Cc1ccc(Nc2nccc(N(C)c3ccc4c(C)n(C)nc4c3)n2)cc1S(N)(=O)=O [Pazopanib] + Oc1cc(-c2nc(-c3ccccc3)[nH]c2-c2ccncc2)ccc1Cl [L779450] (first compound 0.4 µM, partner dose 0.2 µM)	169%	46.2%	61%	133%	62.1%	90.5%	73.9%	95.1%	105%	87.9%	161%	187%	57.1%	189%	71.5%	96.4%			
COc1cc([C@@H]2c3cc4c(cc3[C@@H](O[C@@H]3O[C@@H]5CO[C@@H](C)O[C@H]5[C@H](O)[C@H]3O)[C@H]3COC(=O)[C@H]23)OCO4)cc(OC)c1O [etoposide] + Cn1cnc2c(F)c(Nc3ccc(Br)cc3Cl)c(C(=O)NOCCO)cc21 [selumetinib] (first compound 0.02 µM, partner dose 0.015 µM)	2150%	137%	115%	88.4%	77.3%	73.6%	195%	111%	105%	106%	36.7%	164%		282%	230%	124%	163%	632%	90%
O=C(/C=C/c1cccnc1)NCCCCC1CCN(C(=O)c2ccccc2)CC1 + Oc1cc(-c2nc(-c3ccccc3)[nH]c2-c2ccncc2)ccc1Cl [L779450] (first compound 0.01 µM, partner dose 0.2 µM)	96.8%	16.9%	42.6%	92.9%	5050%	112%	502%	634%	421%	290%	139%	1220%	318%	184%	376%	42.1%			
COc1cc([C@@H]2c3cc4c(cc3[C@@H](O[C@@H]3O[C@@H]5CO[C@@H](C)O[C@H]5[C@H](O)[C@H]3O)[C@H]3COC(=O)[C@H]23)OCO4)cc(OC)c1O [etoposide] + Nc1nc(F)nc2c1ncn2[C@@H]1O[C@H](CO)[C@@H](O)[C@@H]1O [fludarabine] (first compound 0.02 µM, partner dose 0.2 µM)	15600%	46.5%	85.5%	81.7%	81.3%		177%	119%	129%	23.9%	70%	55.3%	138%	400%	207%	45%	1650%	29.2%	60.4%
COc1cc([C@@H]2c3cc4c(cc3[C@@H](O[C@@H]3O[C@@H]5CO[C@@H](C)O[C@H]5[C@H](O)[C@H]3O)[C@H]3COC(=O)[C@H]23)OCO4)cc(OC)c1O [etoposide] + Nc1ncn([C@H]2C[C@H](O)[C@@H](CO)O2)c(=O)n1 [decitabine] (first compound 0.02 µM, partner dose 0.1 µM)	96.4%	104%	140%	72.5%	91.1%	94.4%	231%	129%		64.8%	86.7%	161%	66.3%	150%	111%	104%	54.1%	94.7%	219%
Cc1cn(-c2cc(NC(=O)c3ccc(C)c(Nc4nccc(-c5cccnc5)n4)c3)cc(C(F)(F)F)c2)cn1 [nilotinib] + CS(=O)(=O)CCNCc1ccc(-c2ccc3ncnc(Nc4ccc(OCc5cccc(F)c5)c(Cl)c4)c3c2)o1 [lapatinib] (first compound 0.2 µM, partner dose 0.8 µM)	84.4%	141%	197%	44.9%	223%	87%	83.1%	110%	98.5%	84.6%	117%	69.9%	173%	62.1%	350%	82.3%	157%	87.5%	82.8%
